Data from publication PMC5052650.
Results are given in words; binding and its absence hold for the method and conditions named.

Chains of the proteins cited; added tags and fusions are not shown. Lines headed by an entry give the natural chain unless they say otherwise; changes in a name come on top. Residues count along the entry.
UniProt Q9UGN5, residues 235-579: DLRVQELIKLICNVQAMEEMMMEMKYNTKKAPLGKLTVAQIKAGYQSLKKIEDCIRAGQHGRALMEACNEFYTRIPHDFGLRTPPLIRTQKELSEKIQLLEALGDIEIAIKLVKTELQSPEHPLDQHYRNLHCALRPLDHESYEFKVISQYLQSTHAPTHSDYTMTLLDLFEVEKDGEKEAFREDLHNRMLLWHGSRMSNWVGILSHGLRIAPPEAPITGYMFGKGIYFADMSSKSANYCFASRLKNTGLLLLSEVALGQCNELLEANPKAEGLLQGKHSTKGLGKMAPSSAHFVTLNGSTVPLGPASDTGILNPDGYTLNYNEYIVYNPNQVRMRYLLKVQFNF

Target: ARTD2 catalytic fragment (human) (UniProt Q9UGN5)
Test: SAXS; proteins without DNA; measured without chromatography at three different concentrations; MW from Porod volume divided by 1.7; both purified

## ARTD2 catalytic fragment (from UniProt Q9UGN5-1 235-579) (domain or fragment)
  binding: no binding
